Results deposited as PubChem BioAssay AID504784 (Drosophila RNAi Screening Center, 2011)
Purpose: 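Fly genes whose silencing alters how much lipid cells keep in droplets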 (primary screen). Cell system: Drosophila Kc167 embryonic cells. Reagent: long dsRNA against Drosophila genes, about 250 ng dsRNA per well. Duration: 4 days. Challenge: cells fed 400 µM oleic acid bound to BSA. Measured: 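Microscope images give a droplet-to-nucleus area ratio, taken as log and converted to a screen-wide B-score; higher values mean greater lipid storage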. Scale: droplet/nuclear area B-score: higher = more stored lipid (overstorage).
In all, the deposit lists about 17,000 reagents; below is an unselected part of those that have a named target and a result. 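Each column is one replicate's B-score; the combined score over replicates was not deposited, so single values may mislead.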 A plus sign joins genes that one reagent is predicted to hit. No sequences are given here.

| gene knocked down | dsRNA | droplet/nuclear area B-score, replicate 1 | droplet/nuclear area B-score, replicate 2 | droplet/nuclear area B-score, replicate 3 |
| --- | --- | --- | --- | --- |
| CG14756 | DRSC06491 | -0.0568 | 3.08 | – |
| TpnC47D (Troponin C at 47D) | DRSC07564 | -1.4 | -1.18 | – |
| dpr15 (defective proboscis extension response 15) | DRSC12891 | -0.617 | 0.563 | – |
| dpr15 (defective proboscis extension response 15) | DRSC14187 | 0.852 | 1 | – |
| dpr15 (defective proboscis extension response 15) | DRSC14188 | -0.225 | 0.0143 | – |
| Rbsn-5 (Rabenosyn-5) | DRSC03094 | 1.8 | – | – |
| CG11018 | DRSC06024 | -1.57 | -6.45 | – |
| CG17486 | DRSC07752 | 0.512 | -1.14 | – |
| CG18549 | DRSC15347 | -0.855 | -0.527 | – |
| CG5567 | DRSC10517 | 0.129 | 1.76 | -1.02 |
| Klc (Kinesin light chain) | DRSC11203 | 0.145 | -0.157 | – |
| CG1946 | DRSC06804 | 1.61 | 0.108 | – |
| CG14218 | DRSC19575 | -2.32 | -1.75 | 0.591 |
| CG14315 | DRSC14794 | 0.235 | 1.59 | – |
| ppk22 (pickpocket 22) | DRSC22093 | -0.621 | 2.44 | – |
| CG13862 | DRSC14712 | -0.0359 | 0.956 | – |
| Aven (Apoptosis and caspase activation inhibitor) | DRSC19693 | 0.21 | -0.902 | -0.607 |
| snsl (snustorr snarlik) | DRSC00543 | -0.952 | -0.09 | – |
| RpL10Aa (Ribosomal protein L10Aa) | DRSC15518 | 3.61 | 3.42 | – |
| Obp56e (Odorant-binding protein 56e) | DRSC07188 | 1.04 | -0.859 | – |
| VhaM9.7-d (Vacuolar H[+] ATPase M9.7 subunit d) | DRSC15028 | -0.904 | 0.211 | – |
| CG6937 + btn | DRSC16917 | 1.61 | 0.227 | – |
| TwdlO (TweedleO) | DRSC16043 | 0.681 | 0.348 | – |
| Frq2 (Frequenin 2) | DRSC20245 | 0.307 | 0.348 | – |
| CG1246 | DRSC08275 | -1.4 | 1.61 | – |
| CG7992 | DRSC20070 | 0.949 | -0.13 | – |
| CG31809 | DRSC01561 | 0.835 | -1.79 | – |
| CaBP1 (calcium-binding protein 1) | DRSC01984 | 2.04 | -0.623 | – |
| Gr98c (Gustatory receptor 98c) | DRSC22212 | -1.19 | -1.19 | – |
| CG10657 | DRSC09768 | -0.485 | -0.599 | 1.8 |
| Grx1 (Glutaredoxin 1) | DRSC10727 | 2.05 | 4.35 | – |
| Grip128 | DRSC20167 | -0.251 | -0.106 | -1.45 |
| hoip (hoi-polloi) | DRSC03546 | 2.49 | 2.52 | – |
| Aatf (Apoptosis antagonizing transcription factor) | DRSC02131 | -0.814 | -0.647 | – |

Entries listed so far whose target name begins with D or d (3):
| gene knocked down | dsRNA | droplet/nuclear area B-score, replicate 1 | droplet/nuclear area B-score, replicate 2 | droplet/nuclear area B-score, replicate 3 |
| --- | --- | --- | --- | --- |
| dpr15 (defective proboscis extension response 15) | DRSC12891 | -0.617 | 0.563 | – |
| dpr15 (defective proboscis extension response 15) | DRSC14187 | 0.852 | 1 | – |
| dpr15 (defective proboscis extension response 15) | DRSC14188 | -0.225 | 0.0143 | – |
